# Experimental data taken from patent publication US20120251495A1, “PTERIN BASED THERAPIES FOR INFLAMMATORY CONDITIONS” (priority 2008, published 2012).
# Tested on: plasma cytokines
# Assay: Plasma cytokine levels by ELISA (LINCOplex), 1st experiment
# Format: in vivo, athymic nude (nu/nu) mice
# Details: ACIP stepwise regression
# Experimental: Cytokine levels in EDTA plasma from the mice in the 1st experiment were determined by ELISA assay at Alta Analytical Laboratories (San Diego, Calif.) using a LINCOplex Kit (Linco Research). Tryptophan (Trp) and kynurenine (Kyn) concentrations were measured from EDTA plasma samples by high pressure liquid chromatography (HPLC) using 3-nitro-L-tyrosine as the internal standard (Widner et al., 1997). To estimate IDO activity, the kynurenine to tryptophan ratio (Kyn/Trp) was calculated and expressed as μmol kynurenine/mmol tryptophan (Wirleitner, 2003). The values from five mice in the 1st experiment are not included in the summary statistics given in Table 1 for the following reasons. One mouse from each of the four treatment groups was used to test the effects of mega dosing, i.e., with (1:4 mol:mol) calcium pterin at 100 mg/kg/day after Day 60 of treatment, and are excluded. Also excluded was one mouse from the (1:4 mol:mol) calcium pterin (7 mg/kg/day) group which expired suddenly a few days before blood was collected. Cytokine measurements <3.2 pg/ml are reported as n.d. (not detectable) because the standard curves used in the ELISA assays were not calibrated below that level.
# Cytokine levels in EDTA plasma from the mice in the 1st experiment were determined by ELISA assay at Alta Analytical Laboratories (San Diego, Calif.) using a LINCOplex Kit (Linco Research).
# Cytokine levels in EDTA plasma from the mice in the 2nd experiment were measured at the UCSD Core Laboratory (San Diego, Calif.) using a multiplex assay kit for IL-1β, IL-2, IL-4, IL-5, IL-10, IL-12, IFN-γ, TNF-α and single ELISA kits for IL-6 and TGF-β1 by R&D Systems. EDTA plasma samples from two of the three ungavaged controls were lost due to handling error. For both the 1st and 2nd experiments, those measured cytokine values falling below the limits of detection were set to the higher assay limit for the purposes of the subsequent statistical analyses, and recorded as n.d. (not detectable) in Tables 1 through 3.
substance,measurement,setting,value
(1:4 mol:mol) calcium pterin [CaPterin],"Regression Model Coefficient, dose versus Plasma IFN-γ",,−3.16
same,"Regression Model Coefficient, dose versus Plasma IL-10",,0.31
same,"Standard Regression Coefficient, dose versus Plasma IFN-γ",,−0.33
same,"Standard Regression Coefficient, dose versus Plasma IL-6",,−0.98
same,"Standard Regression Coefficient, dose versus Plasma IL-10",,1.54
same,"Regression Model Coefficient, dose versus Plasma IL-6",p = .047,−0.096
